Values from PubChem BioAssay AID1259254 (NCATS, 2017).
Test: 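Finding genes that stop cells copying their DNA twice in one cycle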 (primary screen). System: human HCT116 colorectal cancer cells. Reagents: single siRNA against human genes. Duration: 3 days. Detection: 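Imaged Hoechst DNA stain sorts each cell into a cycle phase by DNA amount; per plate, G2 fraction set to 0% for non-targeting and 100% for GMNN siRNA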. Direction: G2 robust z-score and G2 cells, % of GMNN control: higher = more G2 cells, more excess DNA replication; raw share of cells in G2: higher = larger share of cells with G2 DNA content. Rule for the call: 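Active siRNAs have a G2 robust z of 5 or more median absolute deviations over the median, which in these data means about 38% or higher of GMNN control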.
This is a random part of about 59,000 reagents. Over the whole deposit, about 1,550 (2.6%) were called active. 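G2 share is only a proxy for re-replication; each gene was hit by three separate siRNAs, and active genes were retested.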 Raw values are not corrected between plates. A number with no mark means an inactive call. Reagents against one gene are numbered here. Not given: the amount of reagent.

| target gene | reagent | G2 robust z-score | G2 cells, % of GMNN control | raw share of cells in G2 (%) |
| --- | --- | --- | --- | --- |
| OGFOD2 | 1 | -1.05 | -4.41 | 3.59 |
| OGFOD2 | 2 | 5.13 (active) | 39.1 | 18.3 |
| OGFOD2 | 3 | 4.06 | 31.5 | 16.5 |
| GPR151 | 1 | 0.0355 | 3.22 | 6.99 |
| GPR151 | 2 | -0.562 | -0.988 | 4.17 |
| GPR151 | 3 | -0.419 | 0.0229 | 3.28 |
| IFNA10 | 1 | -0.384 | 0.267 | 3.63 |
| IFNA10 | 2 | -0.162 | 1.83 | 6.16 |
| IFNA10 | 3 | 2.71 | 22 | 12.2 |
| ACTMAP | 1 | -0.0666 | 2.5 | 4.55 |
| ACTMAP | 2 | -1.22 | -5.63 | 0.866 |
| ACTMAP | 3 | 1.4 | 12.8 | 7.16 |
| E2F6 | 1 | 1.65 | 14.6 | 8.85 |
| E2F6 | 2 | -0.819 | -2.79 | 4.22 |
| E2F6 | 3 | -1.26 | -5.9 | 3.02 |
| CEP250 | 1 | 0.132 | 3.9 | 6.51 |
| CEP250 | 2 | 2.72 | 22.1 | 13.3 |
| CEP250 | 3 | 1.42 | 13 | 8.03 |
| TNF | 1 | 0.627 | 7.38 | 7.97 |
| TNF | 2 | -0.407 | 0.107 | 4.82 |
| TNF | 3 | 0.321 | 5.22 | 6.41 |
| PRKCG | 1 | -1.15 | -5.12 | 3.92 |
| PRKCG | 2 | 0.867 | 9.06 | 8.46 |
| PRKCG | 3 | -0.18 | 1.7 | 4.62 |
| HLA-DQB2 | 1 | 0.276 | 4.91 | 5.45 |
| HLA-DQB2 | 2 | 0.872 | 9.1 | 9.57 |
| HLA-DQB2 | 3 | 0.682 | 7.76 | 6.93 |
| RPP38 | 1 | -0.944 | -3.67 | 2.65 |
| RPP38 | 2 | 0.307 | 5.12 | 7.92 |
| RPP38 | 3 | 1.1 | 10.7 | 10.7 |
| CGAS | 1 | -0.938 | -3.63 | 2.64 |
| CGAS | 2 | 7.14 (active) | 53.2 | 19.2 |
| CGAS | 3 | -0.799 | -2.66 | 1.04 |
| SCGB1C1 | 1 | -0.625 | -1.43 | 2.57 |
| SCGB1C1 | 2 | 0.961 | 9.73 | 7.09 |
| SCGB1C1 | 3 | 2.79 | 22.6 | 9.89 |
| TMEM53 | 1 | -0.589 | -1.17 | 3.96 |
| TMEM53 | 2 | 2.23 | 18.7 | 12.5 |
| TMEM53 | 3 | -1.01 | -4.11 | 1.25 |
| ZNF471 | 1 | 0.284 | 4.97 | 4.55 |
| ZNF471 | 2 | -0.209 | 1.5 | 6.59 |
| ZNF471 | 3 | -0.507 | -0.598 | 3.44 |
| STAT2 | 1 | -0.0118 | 2.88 | 5.54 |
| STAT2 | 2 | -0.717 | -2.08 | 3.27 |
| STAT2 | 3 | 0.313 | 5.17 | 7.42 |

Only “G2 cells, % of GMNN control”, for 6 of the entries above:
CGAS #2: 53.2 (active)
CGAS #3: -2.66
SCGB1C1 #1: -1.43
SCGB1C1 #2: 9.73
SCGB1C1 #3: 22.6
TMEM53 #1: -1.17

The results go on.
| target gene | reagent | G2 robust z-score | G2 cells, % of GMNN control | raw share of cells in G2 (%) |
| --- | --- | --- | --- | --- |
| EGR4 | 1 | -0.552 | -0.914 | 4.91 |
| EGR4 | 2 | -0.885 | -3.26 | 4.02 |
| EGR4 | 3 | -0.384 | 0.264 | 3.75 |
| ZNF225 | 1 | -0.447 | -0.174 | 3.47 |
| ZNF225 | 2 | 1.72 | 15 | 12.7 |
| ZNF225 | 3 | -0.666 | -1.72 | 2.62 |
| YPEL3 | 1 | 2.99 | 24 | 12.1 |
| YPEL3 | 2 | 1.68 | 14.8 | 7.84 |
| YPEL3 | 3 | -0.781 | -2.52 | 1.64 |
| STAB1 | 1 | -0.551 | -0.911 | 3.22 |
| STAB1 | 2 | 3.02 | 24.2 | 16.8 |
| STAB1 | 3 | -0.0843 | 2.37 | 4.33 |
| EIF6 | 1 | 0.129 | 3.87 | 7.16 |
| EIF6 | 2 | 2.94 | 23.7 | 12.9 |
| EIF6 | 3 | 0.319 | 5.21 | 6.94 |
| C10orf67 | 1 | 0.929 | 9.51 | 7.02 |
| C10orf67 | 2 | -0.453 | -0.222 | 3.05 |
| C10orf67 | 3 | -0.718 | -2.09 | 2.53 |
| C10orf67 | 4 | -0.0839 | 2.38 | 4.59 |
| C10orf67 | 5 | -0.386 | 0.251 | 3.51 |
| C10orf67 | 6 | -0.283 | 0.98 | 5.05 |
| H1-8 | 1 | 0.629 | 7.4 | 6.96 |
| H1-8 | 2 | 0.93 | 9.51 | 6.12 |
| H1-8 | 3 | -0.289 | 0.935 | 2.92 |
| GPM6A | 1 | 0.43 | 6 | 8.11 |
| GPM6A | 2 | -1.14 | -5.03 | 2.25 |
| GPM6A | 3 | 0.48 | 6.35 | 6.01 |
| PHC1P1 | 1 | -0.328 | 0.663 | 3.61 |
| PHC1P1 | 2 | 4.22 | 32.6 | 15.2 |
| PHC1P1 | 3 | -0.207 | 1.51 | 3.23 |
| RCN1 | 1 | -0.591 | -1.19 | 2.99 |
| RCN1 | 2 | -0.505 | -0.585 | 4.57 |
| RCN1 | 3 | -0.272 | 1.05 | 3.49 |
| PATE4 | 1 | -0.889 | -3.29 | 2.61 |
| PATE4 | 2 | 0.637 | 7.45 | 6.47 |
| PATE4 | 3 | 2.68 | 21.8 | 13.8 |
| EPGN | 1 | 0.282 | 4.95 | 5.37 |
| EPGN | 2 | -0.48 | -0.408 | 2.99 |
| EPGN | 3 | 5.43 (active) | 41.2 | 16.3 |
| MISP | 1 | 0.859 | 9.01 | 7.57 |
| MISP | 2 | 7.1 (active) | 52.9 | 19.9 |
| MISP | 3 | -0.371 | 0.36 | 2.71 |
